Data published in PubChem BioAssay AID1956 (SRMLSC, 2009).
The other results are listed elsewhere or left out.

Test: compounds boosting herpes simplex virus growth – fold increase, host cell viability (AID 1956); also: tested in PC3 cells
Details: HSV replication augmentation in cells; fold increase: measured here: primary screen fold increase 10 uM, at 10 µM, stronger effect = higher value; viability: measured here: host cell viability series, at 25 µM, stronger effect = lower value

**Q.** For `COc1cc(I)ccc1[As](=O)(O)O`, which fold increase is on record?
**A.** Its fold increase is 1.15.

**Q.** With `COc1ccc2nc(NP(=O)(c3ccccc3)c3ccccc3)sc2c1` as the compound, how does the fold increase read?
**A.** Its fold increase is 0.98.

**Q.** With `CCOC(=O)c1ccc(NC(=O)C(C)(CCl)SC)cc1` (configuration not stated) as the compound, how does the fold increase read?
**A.** The fold increase was 1.1.

**Q.** With `CCOC(=O)c1ccc(NP(C)(=O)Oc2ccc(OC)cc2)cc1` (configuration not stated) as the compound, how does the fold increase read?
**A.** The fold increase was 1.12.

**Q.** With `CCOP(C)(=S)SCC(=O)NC(C)C(=O)O` (configuration not stated) as the compound, how does the fold increase read?
**A.** Its fold increase is 1.03.

**Q.** With `CP(=O)(Nc1ccccn1)Oc1ccc(Cl)cc1` (configuration not stated) as the compound, how does the fold increase read?
**A.** Its fold increase is 0.85.

**Q.** Which fold increase does the source give for `CCC(C)N(CC(C)C)C(=S)SC(NC(C)=O)C(Cl)(Cl)Cl` (configuration not stated) here?
**A.** The fold increase was 0.86.

**Q.** With `CP(=O)(Oc1ccccc1)OC(c1ccccc1)C(F)(F)F` (configuration not stated) as the compound, how does the fold increase read?
**A.** The fold increase was 0.86.

**Q.** For `CP(=O)(Nc1ccc(SC(F)(F)F)cc1)Oc1ccc(Cl)cc1` (configuration not stated), which fold increase is on record?
**A.** Its fold increase is 0.96.

**Q.** Which fold increase does the source give for `Cc1cccc(C)c1OP(C)(=O)Nc1ccc(SC(F)(F)F)cc1` (configuration not stated) here?
**A.** The fold increase was 1.15.

**Q.** For `COP1(=S)c2c(C)nn(CCC#N)c2N=C(c2ccc(F)cc2)N1C` (configuration not stated), which fold increase is on record?
**A.** The fold increase was 1.

**Q.** Which fold increase does the source give for `Cc1cc(C)cc(OP(C)(=O)Nc2ccc(SC(F)(F)F)cc2)c1` (configuration not stated) here?
**A.** The fold increase was 1.

**Q.** For `CCc1ccc(OP(C)(=O)N2CCN(c3ccc([N+](=O)[O-])cc3)CC2)cc1` (configuration not stated), which fold increase is on record?
**A.** Its fold increase is 1.11.

**Q.** With `CP(=O)(NC(=O)Nc1ccccc1)Oc1ccccc1` (configuration not stated) as the compound, how does the fold increase read?
**A.** Its fold increase is 1.02.

**Q.** With `CCOC(=O)Nc1cccc([As](=O)(O)O)c1` as the compound, how does the fold increase read?
**A.** The fold increase was 1.12.

**Q.** With `CP(=S)(Nn1cnnc1)Oc1ccccc1` (configuration not stated) as the compound, how does the fold increase read?
**A.** The fold increase was 1.05.

**Q.** With `O=[N+]([O-])c1ccc(Nc2ccc(Oc3ccc([N+](=O)[O-])cc3[N+](=O)[O-])cc2)c([N+](=O)[O-])c1` as the compound, how does the fold increase read?
**A.** Its fold increase is 1.14.

**Q.** With `CP(=O)(Nc1ccccc1Br)Oc1ccccc1` (configuration not stated) as the compound, how does the fold increase read?
**A.** The fold increase was 0.97.

**Q.** With `COc1ccccc1OP(C)(=O)Nc1ccccc1` (configuration not stated) as the compound, how does the fold increase read?
**A.** Its fold increase is 0.98.

**Q.** For `Cc1cc(SC(NC=O)C(Cl)(Cl)Cl)ncn1` (configuration not stated), which fold increase is on record?
**A.** The fold increase was 0.98.

**Q.** With `O=P(Nc1ccccn1)(c1cccc2ccccc12)c1cccc2ccccc12` as the compound, how does the fold increase read?
**A.** Its fold increase is 0.97.

**Q.** Which fold increase does the source give for `CCOC(=O)Nc1ccc([As](=O)(O)O)c(O)c1` here?
**A.** Its fold increase is 0.99.

**Q.** With `Cc1cc(SC(NC(=O)c2ccccc2)C(Cl)(Cl)Cl)nc(C(C)C)n1` (configuration not stated) as the compound, how does the fold increase read?
**A.** Its fold increase is 1.34.

**Q.** And the viability?
**A.** Its viability is 103%.

**Q.** With `CC(C)(C)C(=O)NC(Sc1ccncn1)C(Cl)(Cl)Cl` (configuration not stated) as the compound, how does the fold increase read?
**A.** The fold increase was 0.94.

**Q.** Which fold increase does the source give for `O=[N+]([O-])c1ncn(CCn2ncnc2[N+](=O)[O-])n1` here?
**A.** Its fold increase is 0.92.

**Q.** Which fold increase does the source give for `O=[N+]([O-])c1cccc(NC2=NCC(CBr)S2)c1` (configuration not stated) here?
**A.** Its fold increase is 1.05.

**Q.** With `O=C(O)CNc1ccc([As](=O)(O)O)cc1` as the compound, how does the fold increase read?
**A.** The fold increase was 0.99.

**Q.** With `O=C(Nc1cc([As](=O)(O)O)ccc1O)c1ccccc1` as the compound, how does the fold increase read?
**A.** The fold increase was 0.89.

**Q.** With `CCOC(=O)c1ccc(NP(C)(=O)Oc2ccc(Cl)cc2)cc1` (configuration not stated) as the compound, how does the fold increase read?
**A.** Its fold increase is 0.87.

**Q.** Which fold increase does the source give for `CP(=O)(OC12CC3CC(CC(C3)C1)C2)OC12CC3CC(CC(C3)C1)C2` here?
**A.** The fold increase was 0.94.

**Q.** With `C[N+]1=C2C=CC=CC=C2SC12C([N+](=O)[O-])=CC([N+](=O)[O-])=C[C-]2[N+](=O)[O-]` (configuration not stated) as the compound, how does the fold increase read?
**A.** The fold increase was 0.56.

**Q.** Which fold increase does the source give for `Nc1ccc([As](=O)(O)c2ccc(N)cc2)cc1` here?
**A.** Its fold increase is 1.09.

**Q.** With `CC(C)(C)c1ccc(OP(C)(=O)O)cc1` as the compound, how does the fold increase read?
**A.** The fold increase was 1.01.

**Q.** With `COc1ccccc1OP(C)(=O)Nc1ccccc1Br` (configuration not stated) as the compound, how does the fold increase read?
**A.** The fold increase was 0.87.

**Q.** Which fold increase does the source give for `CP(=O)(Nc1ccc(Cl)cc1)Oc1ccc(F)cc1` (configuration not stated) here?
**A.** Its fold increase is 0.99.

**Q.** With `CCN(/C(=N/P(=O)(N1CCOCC1)N1CCOCC1)N1CCOCC1)c1ccc(OC)cc1` as the compound, how does the fold increase read?
**A.** Its fold increase is 1.01.

**Q.** With `CN(C)C(=O)OCCc1n(C)cc[n+]1C` as the compound, how does the fold increase read?
**A.** Its fold increase is 0.87.

**Q.** Which fold increase does the source give for `CC(C)=N/N=C(\N)N[N+](=O)[O-]` here?
**A.** The fold increase was 0.95.

**Q.** For `CN(C)C(=O)c1c([N+](=O)[O-])cc([N+](=O)[O-])cc1[N+](=O)[O-]`, which fold increase is on record?
**A.** The fold increase was 0.66.

**Q.** With `CC1CCN(C(=O)Oc2c(Cl)cc(Cl)c3cccnc23)CC1` as the compound, how does the fold increase read?
**A.** Its fold increase is 0.95.

**Q.** With `COc1ccc(OP(C)(=O)Nc2ccc(Br)cc2)cc1` (configuration not stated) as the compound, how does the fold increase read?
**A.** The fold increase was 0.93.

**Q.** Which fold increase does the source give for `COc1ccc(C2=NCC(CBr)S2)cc1` (configuration not stated) here?
**A.** The fold increase was 1.02.

**Q.** Which fold increase does the source give for `CCN(CC)CC(O)COC(=O)C(O)(c1ccccc1)C1CCCCC1` (configuration not stated) here?
**A.** The fold increase was 0.9.

**Q.** With `O=C(OCCCN1CCCC1)C(O)(c1ccccc1)C1CCCCC1` (configuration not stated) as the compound, how does the fold increase read?
**A.** The fold increase was 0.68.

**Q.** Which fold increase does the source give for `COc1ccccc1OP(C)(=O)Nc1c(C)n(C)n(-c2ccccc2)c1=O` (configuration not stated) here?
**A.** Its fold increase is 0.93.

**Q.** With `CC(=O)N1C2C3N(C(C)=O)C1C1N(C(C)=O)C(C(N1C(C)=O)N3C(C)=O)N2C(C)=O` as the compound, how does the fold increase read?
**A.** Its fold increase is 1.07.

**Q.** Which fold increase does the source give for `O=[N+]([O-])c1cccc2n[nH]nc12` here?
**A.** The fold increase was 0.993.

**Q.** Which fold increase does the source give for `O=[N+]([O-])c1cc([N+](=O)[O-])c(CCNc2ccccc2)c([N+](=O)[O-])c1` here?
**A.** The fold increase was 1.03.

**Q.** Which fold increase does the source give for `CCc1nc2c(n1)c1c(non1O)c1c2no[n+]1[O-]` here?
**A.** The fold increase was 0.85.

**Q.** With `CCc1ccc(OP(C)(=O)Nc2cccnc2)cc1` (configuration not stated) as the compound, how does the fold increase read?
**A.** The fold increase was 0.94.

**Q.** Which fold increase does the source give for `CP(=O)(Oc1ccccc1)N1CCOC1=O` (configuration not stated) here?
**A.** Its fold increase is 0.99.

**Q.** Which fold increase does the source give for `Cc1ccc(NP(=O)(Oc2ccccc2)Oc2ccccc2)nc1` here?
**A.** The fold increase was 0.89.

**Q.** For `O=[N+]([O-])c1cc([N+](=O)[O-])c(Nc2ccccn2)c([N+](=O)[O-])c1`, which fold increase is on record?
**A.** Its fold increase is 0.73.

**Q.** For `CC(C)CC(=O)NC(Sc1ccc(Cl)cc1)C(Cl)(Cl)Cl` (configuration not stated), which fold increase is on record?
**A.** The fold increase was 0.85.

**Q.** With `Nc1cc(N)c2nonc2c1[N+](=O)[O-]` as the compound, how does the fold increase read?
**A.** Its fold increase is 0.57.

**Q.** Which fold increase does the source give for `Cc1c(NP(C)(=O)Oc2ccc(C(C)C)cc2)c(=O)n(-c2ccccc2)n1C` (configuration not stated) here?
**A.** Its fold increase is 0.95.

**Q.** With `Cc1c2non([O-])c-2c(C)[n+](=O)[n+]1[O-]` as the compound, how does the fold increase read?
**A.** The fold increase was 0.95.

**Q.** For `O=C(NC(Sc1ccncn1)C(Cl)(Cl)Cl)c1ccccc1` (configuration not stated), which fold increase is on record?
**A.** Its fold increase is 0.8.

**Q.** For `Oc1ccccc1CNc1ccccn1`, which fold increase is on record?
**A.** Its fold increase is 0.93.

**Q.** With `COc1ccccc1OP(C)(=O)Nc1ccc(C)cc1C` (configuration not stated) as the compound, how does the fold increase read?
**A.** Its fold increase is 0.96.

**Q.** For `CP(=O)(Nc1ccccn1)Oc1ccccc1` (configuration not stated), which fold increase is on record?
**A.** Its fold increase is 0.99.

**Q.** Which fold increase does the source give for `CCc1ccc(OP(C)(=O)O)cc1` here?
**A.** Its fold increase is 0.97.

**Q.** With `NC(=O)c1cc([N+](=O)[O-])cc([N+](=O)[O-])c1N` as the compound, how does the fold increase read?
**A.** The fold increase was 0.87.

**Q.** Which fold increase does the source give for `Cc1ccc(N/C(=N/P(=O)(N2CCOCC2)N2CCOCC2)N2CCOCC2)cc1` here?
**A.** The fold increase was 0.99.

**Q.** For `COc1ccccc1OP(C)(=O)Nc1ccc(Br)cc1` (configuration not stated), which fold increase is on record?
**A.** Its fold increase is 0.91.

**Q.** For `Cc1ccc(OP(=O)(Nc2nccs2)Oc2ccc(C)cc2)cc1`, which fold increase is on record?
**A.** The fold increase was 0.93.

**Q.** Which fold increase does the source give for `COc1ccc(OP(C)(=O)Nc2ccccn2)cc1` (configuration not stated) here?
**A.** Its fold increase is 0.8.

**Q.** For `COc1ccccc1OP(=O)(Nc1ccc(C)cn1)Oc1ccccc1OC`, which fold increase is on record?
**A.** The fold increase was 1.

**Q.** For `CN(C)CCOC(=O)C(O)(c1ccccc1)C1CCCC1` (configuration not stated), which fold increase is on record?
**A.** The fold increase was 0.7.

**Q.** For `Clc1ccc(Cl)c(NC2=NCC(CBr)S2)c1` (configuration not stated), which fold increase is on record?
**A.** Its fold increase is 1.

**Q.** With `CN1CCCC(OC(=O)C(c2ccccc2)c2ccccc2)C1` (configuration not stated) as the compound, how does the fold increase read?
**A.** The fold increase was 0.71.

**Q.** With `Cc1nc2ccc3ccccc3c2o1.O=[N+]([O-])c1cc([N+](=O)[O-])c(O)c([N+](=O)[O-])c1` as the compound, how does the fold increase read?
**A.** The fold increase was 1.01.

**Q.** With `CCN(N=Nc1nonc1N)c1nonc1N` as the compound, how does the fold increase read?
**A.** Its fold increase is 1.12.

**Q.** Which fold increase does the source give for `CP(=O)(OCCOc1ccccc1)OCCOc1ccccc1` here?
**A.** Its fold increase is 0.97.

**Q.** For `CP(=O)(Nc1ccc(Cl)cc1Cl)Oc1ccccc1` (configuration not stated), which fold increase is on record?
**A.** Its fold increase is 0.96.

**Q.** For `Nc1cccc2ccc([As](=O)(O)O)cc12`, which fold increase is on record?
**A.** Its fold increase is 0.98.
